Measured data: PubChem BioAssay AID1159584 (Peter MacCallum Cancer Centre, 2016)
In all, the deposit lists about 18,000 reagents; shown is a part drawn at random. Reagent sequences are not shown. Not given: the amount of reagent, the time to read-out.

- Purpose: 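Knock-downs that harm CDH1-null cells more than parental MCF10A cells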 (primary screen)
- Cell system: human MCF10A breast epithelial cells, parental and CDH1-null
- Reagent: siRNA against human genes
- Detection: 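Cell viability by CellTiter-Glo ATP luminescence, each line scaled to the mean of mock wells across plates, then CDH1-null over parental ratio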
- Scale: CDH1-null / parental viability ratio: higher = CDH1-null cells survive relatively better than parental; CDH1-null viability vs mock: higher = more viable CDH1-null cells; parental viability vs mock: higher = more viable parental cells

no.	target gene	CDH1-null / parental viability ratio	CDH1-null viability vs mock (fraction of mock)	parental viability vs mock (fraction of mock)
1	RTRAF (GeneID 51637)	1.27	0.81	0.64
2	MLIP (GeneID 90523)	1.02	0.65	0.64
3	RAB42 (GeneID 115273)	1.32	0.74	0.56
4	ZNF296 (GeneID 162979)	1.05	1.01	0.96
5	DAG1 (GeneID 1605)	1.07	0.98	0.92
6	ZFP28 (GeneID 140612)	1.15	0.85	0.74
7	ZNF682 (GeneID 91120)	0.94	0.75	0.8
8	DMTF1 (GeneID 9988)	0.93	0.84	0.9
9	TRAPPC5 (GeneID 126003)	0.98	0.82	0.84
10	IQGAP3 (GeneID 128239)	1.27	0.94	0.74
11	KIF13A (GeneID 63971)	1	1.1	1.1
12	SLC5A1 (GeneID 6523)	0.92	0.72	0.78
13	LYSMD3 (GeneID 116068)	0.98	0.51	0.52
14	HLA-G (GeneID 3135)	0.83	0.53	0.64
15	SUPV3L1 (GeneID 6832)	1.17	1.01	0.86

Records listed so far whose target name begins with R or r:
target gene	CDH1-null / parental viability ratio	CDH1-null viability vs mock (fraction of mock)	parental viability vs mock (fraction of mock)
RTRAF (GeneID 51637)	1.27	0.81	0.64
RAB42 (GeneID 115273)	1.32	0.74	0.56

Additional reagents follow:
no.	target gene	CDH1-null / parental viability ratio	CDH1-null viability vs mock (fraction of mock)	parental viability vs mock (fraction of mock)
16	CAPZA3 (GeneID 93661)	1.02	0.88	0.86
17	PELO (GeneID 53918)	1.02	0.57	0.56
18	GP2 (GeneID 2813)	1.08	1.12	1.04
19	TSNAXIP1 (GeneID 55815)	1	0.77	0.77
20	ABHD6 (GeneID 57406)	0.83	0.75	0.9
21	SLC6A13 (GeneID 6540)	1.14	0.82	0.72
22	FBXW10 (GeneID 10517)	1.07	0.88	0.82
23	SVOP (GeneID 55530)	0.83	0.53	0.64
24	MRC2 (GeneID 9902)	1.02	1.04	1.02
25	CRYBG1 (GeneID 202)	0.83	0.63	0.76
26	MAML1 (GeneID 9794)	0.92	0.82	0.89
27	SPRED2 (GeneID 200734)	0.76	0.62	0.82
28	RFX6 (GeneID 222546)	1.07	1.03	0.96
